No signal at the amounts used counts as a negative. At least one verdict rests on a figure or table, not on a statement of the authors. Where a protein sequence is shown, tags need not be part of it. Construct, isoform or probe ends are uncertain for at least one entry. Weaker means in comparison with the reference protein, sequence or condition of that experiment.
Tests used:
[1] = target: T1, ParB1-His6 WT (Streptomyces coelicolor A3(2), plasmid SCP1) (UniProt Q9AD11); test: BLI; details: BLI: 100 mM Tris-HCl pH 8, 100 mM NaCl, 1 mM MgCl2, 0.005% Tween 20, 25 C, ParB 0.0625-2 uM (50 bp) or 1 uM (190 bp), recombinant protein, residues 1-375, protein details: C-terminal His6, label: 5' biotin on strand 1
T1 sequence (looked up): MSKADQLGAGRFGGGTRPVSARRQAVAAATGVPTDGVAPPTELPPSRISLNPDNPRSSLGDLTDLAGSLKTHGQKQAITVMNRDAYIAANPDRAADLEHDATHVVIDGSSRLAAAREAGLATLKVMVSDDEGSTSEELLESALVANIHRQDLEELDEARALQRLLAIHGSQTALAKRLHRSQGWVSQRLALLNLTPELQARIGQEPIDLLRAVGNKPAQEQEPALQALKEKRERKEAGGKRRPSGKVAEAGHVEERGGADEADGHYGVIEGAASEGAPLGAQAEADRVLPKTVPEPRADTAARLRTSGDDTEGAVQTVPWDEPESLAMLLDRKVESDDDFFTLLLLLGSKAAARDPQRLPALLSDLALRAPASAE

[2] = target: T2, ParB2-His6 WT (Streptomyces coelicolor A3(2), plasmid SCP1) (UniProt Q9ACT0); test: BLI; details: BLI: 100 mM Tris-HCl pH 8, 100 mM NaCl, 1 mM MgCl2, 0.005% Tween 20, 25 C, ParB 0.0625-2 uM (50 bp) or 1 uM (190 bp), recombinant protein, residues 1-381, protein details: C-terminal His6, label: 5' biotin on strand 1
T2 sequence (looked up): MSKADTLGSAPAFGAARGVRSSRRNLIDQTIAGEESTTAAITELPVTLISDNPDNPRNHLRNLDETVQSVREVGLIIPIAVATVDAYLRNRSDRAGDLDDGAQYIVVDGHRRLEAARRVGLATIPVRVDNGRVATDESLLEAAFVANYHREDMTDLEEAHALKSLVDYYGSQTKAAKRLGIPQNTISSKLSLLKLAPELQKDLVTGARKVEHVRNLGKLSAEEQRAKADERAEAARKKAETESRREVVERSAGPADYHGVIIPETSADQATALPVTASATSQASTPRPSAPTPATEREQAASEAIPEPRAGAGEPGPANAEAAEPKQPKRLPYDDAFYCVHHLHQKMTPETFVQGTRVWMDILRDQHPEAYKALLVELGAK

“AGCAGGCCCCGCCGATTATCACGGCGTGATAATCCCGGAGACGTCCGCTG (double strand) [parS2 50 bp]”: no binding ([1]; no CTP); binds more weakly ([2]; 1 mM CTP).

“CTGGGTATTCCCTCAGTTATCACGGCGTGATAAGAACGAACGACGCTCGC (double strand) [parS2 truncated by 2 bp each end]”: binds [2].

“CTTCGGACGCGGCACCCTCTATTACGGCGTAATGGCCGTCTGCCTCATCC / GGATGAGGCAGACGGCCATTACGGCGTAATAGAGGGTGCCGCGTCCGAAG [parS1 50 bp]”: binds more weakly ([1]; 1 mM CTP); no binding ([2]; no CTP).

“CTGGGTATTCCCTCAATTATCACGGCGTGATAATAACGAACGACGCTCGC (double strand) [parS2 truncated by 1 bp each end]”: binds [2].
